Laboratory results published in PubChem BioAssay AID540276 (National Center for Advancing Translational Sciences (NCATS), 2011).
Several values for one entry are separate records, joined by “and”; a condition that tells them apart may be missing. Equal entries are not always repeated. Screen size: about 300,000 compounds; about 5,400 (1.8%) were called active. Inconclusive means that the source gave no clear call. Such entries were picked first, then a sample of the others. The call rests on the fitted dose curve; tested in HEK293 cells. Where the call is inconclusive, the potency comes from a doubtful curve fit.

test: qHTS for inhibitors of binding or entry into cells for Marburg Virus; conditions: Marburg virus pseudotyped entry inhibition, cell reporter; activity change, negative = inhibition: at 37.8 µM (top of the series) unless noted
On the % scale 0 is the no-effect control and ±100 the full control effect; potency means the concentration at half of the fitted maximal effect.

| Structure (SMILES) | activity change, negative = inhibition | Potency |
| --- | --- | --- |
| COc1ccc(Cl)cc1NC(=O)c1cn(C2CCCC2)c(=O)c2c1c1ccccc1n2C | inconclusive: 56.6% [activator] [at 46.1 µM] |  |
| COc1ccc(-c2csc(NC(=O)CSCc3c(C)noc3C)n2)c(OC)c1 | inactive: -0.709% |  |
| Cc1ccc(/C=C/C(=O)c2ccc(O)cc2)cc1 |  | inconclusive: 15.8 µM [inhibitor, single point] |
| Cc1cccc(OCCNc2cc(N3CCN(C)CC3)ccc2[N+](=O)[O-])c1 |  | inconclusive: 35.5 µM [inhibitor, single point] |
| CCN(CC)CCCN=C1NC(c2cccc(C(F)(F)F)c2)C(C(=O)OC)=C(C)N1CC (configuration not stated) |  | inconclusive: 2.66 µM [inhibitor, partial curve, poor fit] and inconclusive: 168 nM [activator, full curve, poor fit] |
| NS(=O)(=O)c1ccc(NC(=O)CSc2nnc(-c3ccc(O)cc3)o2)cc1 |  | inconclusive: 35.5 µM [activator, single point] |
| COC(=O)N1C2CC3(C)CC(=O)CC1(C)C3c1ccccc12 (configuration not stated) |  | inactive |
| COc1ccc(NC2=CC(c3ccc(OC)c(OC)c3)N(c3ccc(OC)cc3)C2=O)cc1 (configuration not stated) | inactive: -23.1% |  |
| CCOC(=O)c1[nH]c(C=O)c(C(=O)OCC)c1C |  | inconclusive: 7.08 µM [inhibitor, partial curve, poor fit] |
| COc1ccc(Cl)cc1NC(=S)N1CCN(c2ccccn2)CC1 |  | inconclusive: 44.7 µM [inhibitor, partial curve, poor fit] |
| CCc1ccc(NC(=O)CCC(=O)c2ccc(C)cc2)cc1 | inactive: 5.35% [at 46.1 µM] |  |
| COc1ccc(C(C)NCCC(c2ccc(OC(C)C)cc2)c2ccccc2OC)cc1 (configuration not stated) |  | inconclusive: 11.2 µM [inhibitor, partial curve, poor fit] |
| COc1ccc(OC(C)C(=O)N(C)Cc2nc(-c3cccc(C)c3)no2)cc1 (configuration not stated) |  | inconclusive: 12.6 µM [inhibitor, single point] |
| COc1ccc(C)cc1NC(=O)c1cc2c(=O)n3cccc(C)c3nc2s1 |  | inconclusive: 3.55 µM [inhibitor, single point] |
| CCOC(=O)c1c(C)[nH]c(C)c1C(=O)COC(=O)/C=C/c1ccc(OC(F)F)cc1 |  | inconclusive: 35.5 µM [inhibitor, single point] |
| CCOc1ccc(NC(=O)Cn2cnc3sc(C)c(S(=O)(=O)N4CCN(c5ccccc5OC)CC4)c3c2=O)cc1 |  | inconclusive: 31.6 µM [inhibitor, single point] |
| COc1ccc(NC(=O)c2ccco2)cc1NC(=O)C(C)(C)Oc1ccc(Cl)cc1 |  | inconclusive: 14.1 µM [inhibitor, partial curve, poor fit] |
| CC1CC(=S)Nc2ccccc2N1C(=O)Nc1ccccc1 (configuration not stated) | inactive: -19.7% |  |
| O=C1C(c2ccc(F)cc2)N(CC2COc3ccccc3O2)C(=O)CN1C1CCCCC1 (configuration not stated) | inactive: 4.67% |  |
| COC(=O)c1ccc(Cl)c(NC(=O)CN(c2ccc3c(c2)OCO3)S(C)(=O)=O)c1 |  | inconclusive: 14.6 µM [inhibitor, single point] |
| CSc1n[nH]c(N)c1S(=O)(=O)c1ccc(Cl)cc1 | inactive: 4.74% |  |
| Cc1ccc[n+](CC(=O)Nc2cccc(Cl)c2)c1 |  | inconclusive: 3.16 µM [inhibitor, single point] |
| Nn1c(SCC(=O)Nc2ccc3c(c2)OCCO3)nncc1=O |  | inconclusive: 1.78 µM [activator, partial curve, poor fit] |

Single records, as listed above:
COc1ccc(NC(=O)c2ccco2)cc1NC(=O)C(C)(C)Oc1ccc(Cl)cc1 in the list: Potency: inconclusive: 14.1 µM [inhibitor, partial curve, poor fit]
CCc1ccc(NC(=O)CCC(=O)c2ccc(C)cc2)cc1 in the list: activity change, negative = inhibition: inactive: 5.35% [at 46.1 µM]
CCOC(=O)c1[nH]c(C=O)c(C(=O)OCC)c1C in the list: Potency: inconclusive: 7.08 µM [inhibitor, partial curve, poor fit]
CCOC(=O)c1c(C)[nH]c(C)c1C(=O)COC(=O)/C=C/c1ccc(OC(F)F)cc1 in the list: Potency: inconclusive: 35.5 µM [inhibitor, single point]

Next part.

| Structure (SMILES) | activity change, negative = inhibition | Potency |
| --- | --- | --- |
| Cc1ccc(C(NC(=O)c2ccccc2)C(Cl)Cl)cc1 (configuration not stated) |  | inconclusive: 35.5 µM [inhibitor, single point] |
| COc1cc(C(=S)N2CCOCC2)cc(OC)c1OC(=O)c1ccc([N+](=O)[O-])cc1[N+](=O)[O-] |  | inconclusive: 0.112 µM [inhibitor, full curve, poor fit] |
| O=C(CN1CCc2cc3c(cc2C1)OCCCO3)Nc1ccc(S(=O)(=O)N2CCCC2)cc1 |  | inconclusive: 35.5 µM [inhibitor, single point] |
| CCCCN(CCCC)S(=O)(=O)c1ccc2oc(C(=O)N3CCOCC3)c(C)c2c1 |  | inconclusive: 25.9 µM [inhibitor, partial curve, poor fit] |
| Cc1nn(C(C)(C)C)c(OC(=O)CC(C)C)c1S(=O)(=O)c1ccccc1 |  | inconclusive: 35.5 µM [inhibitor, partial curve, poor fit] |
| CC(/C=N/n1c(C2CCCCC2)n[nH]c1=S)=C\c1ccccc1 |  | inconclusive: 14.6 µM [inhibitor, partial curve] |
| O=C1Nc2cc(C(=O)N3CCC4(CC3)OCCO4)ccc2S/C1=C\c1ccccc1 |  | inconclusive: 11.2 µM [inhibitor, partial curve, poor fit] |
| Cc1c(/C=C/C(=O)c2ccccc2O)cnn1C |  | inconclusive: 1.16 µM [activator, full curve] |
| Cc1ccccc1P(=O)(CO)c1ccccc1C | inactive: -3.04% |  |
| Cc1ccc(NC(=O)CCN2C(=O)c3ccccc3C2=O)c(C)c1 |  | inconclusive: 35.5 µM [activator, single point] |
| CCC(=O)O[C@]1(C(=O)CCl)[C@@H](C)C[C@H]2[C@@H]3CCC4=CC(=O)C=C[C@]4(C)[C@@]3(F)[C@@H](O)C[C@@]21C |  | inconclusive: 20.6 µM [inhibitor, partial curve, poor fit] |
| CNc1ccc(Br)cc(C(=O)/C=C/c2cccc(OC)c2)c1=O |  | inconclusive: 18.3 µM [inhibitor, single point] |
| Cc1nc(N)sc1C(=O)N/N=C/c1cccnc1 |  | inconclusive: 20 µM [inhibitor, partial curve, poor fit] |
| CCCCn1c(=O)[nH]c(=O)c2c1nc(-c1ccc(-c3ccccc3)cc1)n2C |  | inconclusive: 6.31 µM [activator, partial curve, poor fit] |
| NC(=O)c1ccccc1OCc1cccc2ccccc12 | inactive: -24.8% [at 46.1 µM] |  |
| COC(=O)c1ccc(N2C(=O)CC(N3CCC(O)(c4ccc(Br)cc4)CC3)C2=O)cc1 (configuration not stated) | inactive: 11.9% |  |
| Cc1ccccc1CN1C[C@@H]2C[C@@H](c3cn(C)nc3-c3ccccc3)N3CCC[C@@]23C1=O |  | inconclusive: 22.4 µM [inhibitor, partial curve, poor fit] |
| COc1ccc(Nc2nc(N)nc(CSc3nc(C)cc(C)n3)n2)cc1 |  | inconclusive: 0.316 µM [inhibitor, full curve, poor fit] |
| O=C(O)c1cc(/C=N\O)ccc1OCc1ccccc1 | inactive: 13.9% |  |
| CC1=CC(C)(C)Nc2ccc(OC(=O)CN3C(=O)C4CCCCC4C3=O)cc21 (configuration not stated) |  | inconclusive: 10 µM [inhibitor, partial curve, poor fit] |
| CCc1ccc(-n2nc(CO)c(C(=O)NCCOC)n2)cc1 | inactive: -10.6% [at 46.1 µM] |  |
| COc1cc(C(=O)Nc2cccc(-c3cn4cccnc4n3)c2)cc(OC)c1OC | inactive: -0.269% [at 46.1 µM] |  |
| CCc1ccc(-c2cc(C)no2)cc1S(=O)(=O)N1CCN(c2ccccn2)CC1 |  | inconclusive: 2.24 µM [inhibitor, partial curve, poor fit] |

| Structure (SMILES) | activity change, negative = inhibition | Potency |
| --- | --- | --- |
| CCN(CC)S(=O)(=O)c1ccc2c(c1)nc(CCC(=O)OCC(=O)Nc1cc(OC)cc(OC)c1)n2C |  | inconclusive: 1.26 µM [inhibitor, single point] |
| CC1(C)C(=O)OC(c2cccs2)C(C)(C)C1=O (configuration not stated) | inactive: 4.67% |  |
| O=C(Cn1ncc2c(Cl)cccc21)NCc1cccc(Cl)c1 | inactive: 3.17% [at 46.1 µM] |  |
| COc1ccc(/C=N/Nc2nonc2N)cc1OC | inactive: 26.4% [at 46.1 µM] |  |
| COc1ccc(N2Cc3ccccc3/C2=N\C(=O)Nc2ccccc2)cc1 | inactive: -10.8% [at 46.1 µM] |  |
| CC1=C(C(=O)Nc2ccccc2C)C(c2cccs2)n2nc(SCc3ccccc3)nc2N1 (configuration not stated) |  | inconclusive: 31.6 µM [activator, single point] |
| COc1cc2c(cc1OC)CN(C(=O)c1ccc(S(=O)(=O)N3CCCCCC3)cc1)CC2 |  | inconclusive: 35.5 µM [inhibitor, single point] |
| COc1ccc(-c2cc(C(F)(F)F)nc(N3CCN(c4ccc(F)cc4)CC3)n2)cc1OC |  | inconclusive: 28.2 µM [activator, partial curve, poor fit] |
| Nn1c(SCc2csc(-c3ccccc3)n2)nnc1-c1cccs1 |  | inconclusive: 0.206 µM [inhibitor, full curve, poor fit] |
| CCc1nnc(NC(=O)c2ccc(Br)o2)s1 | inactive: -5.33% |  |
| Cc1cc(N2CCCC2)nc(-c2ccccc2O)n1 | inactive: -0.255% |  |
| Cc1ccc(N2C(N)=C(C#N)C(c3cccnc3)C3=C2CC(C)(C)CC3=O)cc1 (configuration not stated) |  | inconclusive: 6.31 µM [inhibitor, single point] |
| CCN1C(=O)N(S(=O)(=O)C(F)(F)F)C(c2ccccc2)C(C(=O)OC)=C1C (configuration not stated) | inactive: -6.02% [at 14.2 µM] |  |
| Clc1cccc(Oc2cnc3ccccc3n2)c1 | inactive: -12.2% |  |
| O=C(c1cccs1)N1CCc2ccccc2C1 |  | inconclusive: 12.6 µM [activator, partial curve, poor fit] |
| COc1ccc(OC)c(Nc2nc3nonc3nc2N2CCCCC2)c1 |  | inconclusive: 35.5 µM [activator, single point] |
| CC(=NNC(=O)CSc1nc2ccccc2o1)c1ccco1 | inactive: 9.66% |  |
| CCCc1cc(C(N)=O)c(NC(=O)c2ccco2)s1 | inactive: -2.9% |  |
| CCOC(=O)c1c(C)sc(-c2c(-c3ccccc3)[nH]c3[nH]c(=O)[nH]c(=O)c23)c1O | inactive: 15.4% [at 46.1 µM] |  |
| CCOC(=O)N1CCN(C(=O)CN(c2ccccc2OC)S(=O)(=O)c2ccc(OC)cc2)CC1 |  | inconclusive: 28.2 µM [activator, partial curve, poor fit] |
| CCc1ccc(N=C2NC(=O)/C(=C/c3cc(OC)c(OC)c(OC)c3)S2)cc1 |  | inconclusive: 31.6 µM [inhibitor, partial curve, poor fit] |
